Measurements reported in patent US20120156699A1, “Pathogenic TH17 Cells; related reagents and methods” (Schering Corporation, priority 2007, published 2012).
For at least one compound, name, drawing or mass did not settle the structure.

Test system: IL-23R
Assay: IL-23R expression in naïve human CD4+ T cells, flow cytometry
Assay type: cell-based
Settings: 10 μM PGE2, 10 μM butaprost, 35 μM misoprostol, 10 μM sulprostone; restimulated 48 hours; FIGS. 4A, 4B
Procedure: FIGS. 4A and 4B present results obtained in experiments in which naïve human CD4^+ T cells are activated with T cell activation beads and cultured in the presence or absence of PGE2 or specific EP receptors agonists.
Methods used in this example are generally as described at Wilson et al. (2007) Nature Immunology 8:950. More specifically, cell culture is performed as follows. Naïve CD4^+ CD45RO^− T cells are isolated and cultured as described previously (Wilson et al. (2007), supra). Memory CD4^+ CD45RA^− T cells are isolated using the memory T cell isolation kit, human (Miltenyi, Auburn, Calif.), according to the manufacturer's instructions. Where indicated, 50 ng/ml hIL-23, 50 ng/ml hIL-1β (R&D Systems, Minneapolis, Minn.), 10 μM PGE2 (Sigma, St. Louis, Mo.), 10 μM butaprost (EP2 selective agonist), 35 μM misoprostol (EP4, EP3>EP1>EP2 agonist), and/or 10 μM sulprostone (EP1, EP3 agonist, Cayman Chemical, Ann Arbor, Mich.) are added.
For analysis of cell surface proteins, cells are stained with anti-CD4, anti-CD3, anti-CD45RA, anti-CCR6 (BD Biosciences), and/or anti-IL-23R (R&D Systems) antibodies. Data are acquired on a LSR II cytometer and analyzed with FlowJo software (Tree Star, Ashland, Oreg.).
Further experiments are performed to determine the effect of PGE2, or agonists thereof, on the expression of IL-23R in naïve human CD4^+ T cells in culture. […]

Row | SMILES | percentage of IL-23R expressing CD4+ T cells
1 | CCCCC(C)(O)C/C=C/[C@H]1[C@H](O)CC(=O)[C@@H]1CCCCCCC(=O)OC (mixture of isomers) [misoprostol] | more than doubles
2 | CS(=O)(=O)NC(=O)CCC/C=C\C[C@H]1C(=O)C[C@@H](O)[C@@H]1/C=C/[C@@H](O)COc1ccccc1 [sulprostone] | but not
